Measured values: PMC12643519
These are yes or no findings as the source states them, for the method shown. In cells and extracts the contact can be indirect. These calls come from enrichment with a bait or labelling near it, and not all partners need be listed. Sequences can lack the tags named with a protein.

The chains behind the UniProt entries cited, without tags or fusion partners.
UniProt O43707: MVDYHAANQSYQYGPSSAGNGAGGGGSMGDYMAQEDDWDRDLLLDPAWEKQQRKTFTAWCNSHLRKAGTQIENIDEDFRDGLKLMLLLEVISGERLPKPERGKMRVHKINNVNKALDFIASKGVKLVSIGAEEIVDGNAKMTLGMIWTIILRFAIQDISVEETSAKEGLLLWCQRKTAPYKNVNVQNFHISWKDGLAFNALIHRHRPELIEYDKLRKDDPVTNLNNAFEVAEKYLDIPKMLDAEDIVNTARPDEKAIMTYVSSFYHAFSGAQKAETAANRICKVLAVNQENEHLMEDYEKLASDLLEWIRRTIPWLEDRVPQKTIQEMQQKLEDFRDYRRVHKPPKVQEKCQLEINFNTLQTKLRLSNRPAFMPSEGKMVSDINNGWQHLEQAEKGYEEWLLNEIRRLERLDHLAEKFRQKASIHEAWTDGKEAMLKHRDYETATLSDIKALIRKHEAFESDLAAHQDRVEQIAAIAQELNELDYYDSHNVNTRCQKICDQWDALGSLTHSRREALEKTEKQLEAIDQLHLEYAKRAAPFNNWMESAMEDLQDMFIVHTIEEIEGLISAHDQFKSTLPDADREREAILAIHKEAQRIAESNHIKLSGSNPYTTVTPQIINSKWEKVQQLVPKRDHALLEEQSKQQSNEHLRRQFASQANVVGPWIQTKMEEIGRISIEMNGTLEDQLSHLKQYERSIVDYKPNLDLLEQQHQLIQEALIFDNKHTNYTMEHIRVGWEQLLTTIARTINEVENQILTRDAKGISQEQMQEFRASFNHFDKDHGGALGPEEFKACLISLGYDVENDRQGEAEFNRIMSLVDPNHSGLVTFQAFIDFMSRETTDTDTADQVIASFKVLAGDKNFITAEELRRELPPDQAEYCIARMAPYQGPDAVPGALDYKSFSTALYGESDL
UniProt P35580: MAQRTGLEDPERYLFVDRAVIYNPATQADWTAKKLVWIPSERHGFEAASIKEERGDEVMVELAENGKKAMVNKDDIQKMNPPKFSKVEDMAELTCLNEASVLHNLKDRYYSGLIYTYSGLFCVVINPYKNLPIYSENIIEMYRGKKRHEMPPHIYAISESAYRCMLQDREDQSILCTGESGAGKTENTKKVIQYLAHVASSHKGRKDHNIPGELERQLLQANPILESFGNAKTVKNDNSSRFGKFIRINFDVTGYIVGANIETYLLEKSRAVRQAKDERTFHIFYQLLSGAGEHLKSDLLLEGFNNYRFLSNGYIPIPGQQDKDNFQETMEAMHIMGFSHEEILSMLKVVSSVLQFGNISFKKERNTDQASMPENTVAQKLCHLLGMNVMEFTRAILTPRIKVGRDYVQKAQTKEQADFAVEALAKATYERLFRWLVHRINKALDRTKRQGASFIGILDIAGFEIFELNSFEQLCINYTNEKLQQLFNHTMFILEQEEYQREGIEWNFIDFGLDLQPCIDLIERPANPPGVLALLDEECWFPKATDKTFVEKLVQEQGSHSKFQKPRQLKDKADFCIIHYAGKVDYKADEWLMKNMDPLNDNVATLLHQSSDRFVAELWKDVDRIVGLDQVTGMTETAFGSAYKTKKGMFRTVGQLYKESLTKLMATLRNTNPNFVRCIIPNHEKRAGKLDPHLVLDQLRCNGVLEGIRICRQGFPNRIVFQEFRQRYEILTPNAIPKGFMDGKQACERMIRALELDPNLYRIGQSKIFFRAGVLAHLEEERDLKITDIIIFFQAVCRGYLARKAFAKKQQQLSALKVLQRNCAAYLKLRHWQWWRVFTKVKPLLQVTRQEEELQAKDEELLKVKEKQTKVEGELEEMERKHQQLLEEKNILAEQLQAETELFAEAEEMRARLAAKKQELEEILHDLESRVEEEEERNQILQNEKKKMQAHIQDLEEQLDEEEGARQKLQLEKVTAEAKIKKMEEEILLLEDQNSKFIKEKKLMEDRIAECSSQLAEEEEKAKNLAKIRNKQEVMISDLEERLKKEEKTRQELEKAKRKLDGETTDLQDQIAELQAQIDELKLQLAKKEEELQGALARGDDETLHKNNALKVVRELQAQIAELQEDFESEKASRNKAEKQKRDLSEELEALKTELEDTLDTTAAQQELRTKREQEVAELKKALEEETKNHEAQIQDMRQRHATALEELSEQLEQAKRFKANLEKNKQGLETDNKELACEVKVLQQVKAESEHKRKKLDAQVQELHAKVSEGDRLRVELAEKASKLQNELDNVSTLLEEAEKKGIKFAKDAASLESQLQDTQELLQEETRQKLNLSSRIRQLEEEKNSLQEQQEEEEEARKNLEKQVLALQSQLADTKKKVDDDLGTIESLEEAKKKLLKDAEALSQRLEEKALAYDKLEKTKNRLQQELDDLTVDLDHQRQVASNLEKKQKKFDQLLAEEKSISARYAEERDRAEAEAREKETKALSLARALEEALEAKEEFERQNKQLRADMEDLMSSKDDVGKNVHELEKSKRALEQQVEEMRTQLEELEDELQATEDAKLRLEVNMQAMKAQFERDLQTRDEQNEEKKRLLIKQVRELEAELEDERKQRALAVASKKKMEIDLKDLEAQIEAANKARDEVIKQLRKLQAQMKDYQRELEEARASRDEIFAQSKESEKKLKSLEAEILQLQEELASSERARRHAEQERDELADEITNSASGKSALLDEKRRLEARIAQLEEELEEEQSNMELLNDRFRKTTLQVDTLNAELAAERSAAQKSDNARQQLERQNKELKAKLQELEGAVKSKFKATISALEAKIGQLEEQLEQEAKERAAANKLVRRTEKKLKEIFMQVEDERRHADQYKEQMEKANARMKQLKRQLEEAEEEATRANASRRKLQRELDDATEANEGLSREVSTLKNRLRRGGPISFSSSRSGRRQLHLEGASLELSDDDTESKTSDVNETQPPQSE
UniProt Q7Z406: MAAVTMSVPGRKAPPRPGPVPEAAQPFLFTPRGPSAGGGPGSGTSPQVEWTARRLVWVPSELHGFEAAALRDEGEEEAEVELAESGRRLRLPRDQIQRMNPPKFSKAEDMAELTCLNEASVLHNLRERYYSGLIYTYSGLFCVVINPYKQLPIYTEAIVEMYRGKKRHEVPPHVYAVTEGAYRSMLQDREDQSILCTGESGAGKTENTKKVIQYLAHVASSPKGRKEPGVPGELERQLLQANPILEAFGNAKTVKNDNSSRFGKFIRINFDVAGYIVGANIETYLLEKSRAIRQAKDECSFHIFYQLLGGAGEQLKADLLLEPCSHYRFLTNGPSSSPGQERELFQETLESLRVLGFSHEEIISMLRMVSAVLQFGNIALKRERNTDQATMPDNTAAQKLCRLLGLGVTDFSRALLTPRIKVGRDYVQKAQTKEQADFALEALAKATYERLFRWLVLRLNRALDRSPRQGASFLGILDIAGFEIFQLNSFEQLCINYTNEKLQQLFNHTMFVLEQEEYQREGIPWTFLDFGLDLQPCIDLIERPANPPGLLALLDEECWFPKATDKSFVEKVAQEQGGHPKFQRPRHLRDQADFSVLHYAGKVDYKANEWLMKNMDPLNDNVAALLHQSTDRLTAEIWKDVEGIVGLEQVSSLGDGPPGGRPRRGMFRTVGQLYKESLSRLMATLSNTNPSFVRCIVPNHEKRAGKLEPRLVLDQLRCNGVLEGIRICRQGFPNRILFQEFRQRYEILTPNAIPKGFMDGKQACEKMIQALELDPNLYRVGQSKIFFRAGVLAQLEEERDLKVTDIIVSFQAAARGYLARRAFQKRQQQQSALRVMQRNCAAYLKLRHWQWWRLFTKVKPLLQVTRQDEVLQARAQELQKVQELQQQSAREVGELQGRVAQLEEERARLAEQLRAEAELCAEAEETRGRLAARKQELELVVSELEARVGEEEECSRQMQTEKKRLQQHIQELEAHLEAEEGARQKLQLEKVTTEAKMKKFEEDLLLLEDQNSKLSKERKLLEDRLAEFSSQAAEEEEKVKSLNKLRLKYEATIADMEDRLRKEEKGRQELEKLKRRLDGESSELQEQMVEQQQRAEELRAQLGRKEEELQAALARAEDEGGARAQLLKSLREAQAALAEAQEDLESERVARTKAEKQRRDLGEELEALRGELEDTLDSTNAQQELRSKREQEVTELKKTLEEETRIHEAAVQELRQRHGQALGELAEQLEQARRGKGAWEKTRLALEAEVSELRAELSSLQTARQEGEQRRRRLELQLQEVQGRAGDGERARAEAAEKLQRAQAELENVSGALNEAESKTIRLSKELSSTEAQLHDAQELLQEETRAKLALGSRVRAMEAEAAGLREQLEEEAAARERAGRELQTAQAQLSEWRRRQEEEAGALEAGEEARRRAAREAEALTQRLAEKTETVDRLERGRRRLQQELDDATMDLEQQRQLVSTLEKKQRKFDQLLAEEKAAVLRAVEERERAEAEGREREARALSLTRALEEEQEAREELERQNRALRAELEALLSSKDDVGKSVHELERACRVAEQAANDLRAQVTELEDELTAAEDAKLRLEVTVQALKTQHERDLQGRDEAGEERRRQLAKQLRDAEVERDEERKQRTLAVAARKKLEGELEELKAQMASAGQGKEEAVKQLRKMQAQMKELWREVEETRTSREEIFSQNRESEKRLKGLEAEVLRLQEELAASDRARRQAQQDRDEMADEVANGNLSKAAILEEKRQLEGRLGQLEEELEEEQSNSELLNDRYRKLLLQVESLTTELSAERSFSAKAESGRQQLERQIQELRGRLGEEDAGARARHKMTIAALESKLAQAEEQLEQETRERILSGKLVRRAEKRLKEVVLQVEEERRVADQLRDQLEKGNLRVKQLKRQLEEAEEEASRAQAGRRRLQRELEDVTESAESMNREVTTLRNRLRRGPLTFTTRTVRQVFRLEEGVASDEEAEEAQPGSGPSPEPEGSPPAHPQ

Target: T1, SEPT9-GFP (UniProt Q9UHD8)
T1 sequence: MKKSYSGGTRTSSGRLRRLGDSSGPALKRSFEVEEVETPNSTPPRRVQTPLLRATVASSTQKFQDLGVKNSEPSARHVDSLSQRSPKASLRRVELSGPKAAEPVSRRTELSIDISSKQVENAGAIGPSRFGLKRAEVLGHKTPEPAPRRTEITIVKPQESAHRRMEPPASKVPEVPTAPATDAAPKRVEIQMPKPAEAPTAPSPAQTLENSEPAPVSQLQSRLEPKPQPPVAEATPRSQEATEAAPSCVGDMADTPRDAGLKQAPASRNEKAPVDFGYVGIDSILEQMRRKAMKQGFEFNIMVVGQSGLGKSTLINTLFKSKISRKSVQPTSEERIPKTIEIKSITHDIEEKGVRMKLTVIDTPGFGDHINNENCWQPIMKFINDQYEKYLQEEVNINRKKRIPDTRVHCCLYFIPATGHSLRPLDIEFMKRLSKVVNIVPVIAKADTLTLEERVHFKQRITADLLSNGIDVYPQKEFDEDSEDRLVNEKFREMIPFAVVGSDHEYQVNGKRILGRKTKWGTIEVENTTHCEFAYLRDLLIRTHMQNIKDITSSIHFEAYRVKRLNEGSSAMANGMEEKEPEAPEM
Assay: affinity purification with mass spectrometry; pulldowns of SEPT9-GFP overexpressed in DLD-1 cells

binding, binds:
α-actinin-4 (from UniProt O43707 1-911)
NMIIB (from UniProt P35580 1-1976)
nonmuscle myosin IIC (from UniProt Q7Z406 1-1995)
